Measurements from the supplement of paper PMC10849652.
Some of the results follow. Residues, ends and D or L forms follow the SMILES beside them. *: point of attachment. Cbz = O=C(OCc1ccccc1)*

Chains of the proteins cited; added tags and fusions are not shown. Lines headed by an entry give the natural chain unless they say otherwise; changes in a name come on top.
UniProt Q8WUY1: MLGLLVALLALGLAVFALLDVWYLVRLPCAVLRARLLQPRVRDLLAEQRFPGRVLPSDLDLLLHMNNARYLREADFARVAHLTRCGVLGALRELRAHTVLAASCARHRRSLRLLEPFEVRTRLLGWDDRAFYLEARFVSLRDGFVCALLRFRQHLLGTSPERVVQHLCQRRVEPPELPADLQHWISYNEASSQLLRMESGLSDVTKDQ
UniProt Q9UGI8: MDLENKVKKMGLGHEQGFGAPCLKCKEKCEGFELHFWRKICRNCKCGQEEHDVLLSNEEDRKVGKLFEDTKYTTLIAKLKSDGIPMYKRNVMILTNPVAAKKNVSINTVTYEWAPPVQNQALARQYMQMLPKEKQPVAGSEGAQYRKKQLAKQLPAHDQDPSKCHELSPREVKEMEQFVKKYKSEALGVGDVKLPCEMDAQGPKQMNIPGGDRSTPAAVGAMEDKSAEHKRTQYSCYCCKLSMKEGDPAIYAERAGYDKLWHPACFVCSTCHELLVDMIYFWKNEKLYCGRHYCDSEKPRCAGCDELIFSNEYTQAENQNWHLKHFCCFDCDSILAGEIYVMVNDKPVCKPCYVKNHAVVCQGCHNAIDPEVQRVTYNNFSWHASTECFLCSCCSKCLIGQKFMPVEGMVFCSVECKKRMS
UniProt Q5T1C6: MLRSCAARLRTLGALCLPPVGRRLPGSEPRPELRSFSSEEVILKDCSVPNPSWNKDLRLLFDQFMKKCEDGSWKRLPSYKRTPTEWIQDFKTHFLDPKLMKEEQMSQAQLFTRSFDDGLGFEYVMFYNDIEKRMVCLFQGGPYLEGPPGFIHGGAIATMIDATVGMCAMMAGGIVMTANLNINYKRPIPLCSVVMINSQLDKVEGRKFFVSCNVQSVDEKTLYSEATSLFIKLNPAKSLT

Experiments:
Assay in all cases: log2 fold change, soluble protein after heating vs DMSO (PISA); higher = thermal stabilisation; K562 cells, 10 uM, 30 min; active = over 0.2 and 3.5 SD of the protein, either way, in both replicates (recomputed)
[1] = compound: C#Cc1cccc(Nc2ncnc3cc(OCCOC)c(OCCOC)cc23)c1 [erlotinib]
In short: (§1)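 Quantification of soluble protein used TMTpro 16plex LC-MS/MS, with channel sums equalised. Samples were the supernatant after 21,000xg for 90 min of pooled aliquots from K562 cells (2×10^6 cells/mL) treated with 10 μM compound for 30 min, heated for 3 min over 48°C-58°C, and extracted in PBS with 0.5% NP-40 at 4°C. Values, from duplicates, describe thermal stability against control samples on a log2 fold-change scale.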

[2] = compound: C/C(=N\NC(=O)C1=CC(=CC=C1)S(=O)(=O)N2CCOCC2)/C3=C(C=CC(=C3)Cl)O
In short: as §1

[3] = compound: C1=CC(=C(C=C1Cl)C2=NC3=NC=CN=C3C(=N2)NC4=CC=NC=C4)F
In short: as §1

[4] = compound: C1=CC(=CC=C1C2=NC3=C(N2)C=C(C=C3)C(=O)N)OC4=CC=C(C=C4)Cl
In short: as §1

[5] = compound: C1=CC2=C(C=CC(=C2)/C=C\3/C(=O)NC(=NCC4=CC=CS4)S3)N=C1
In short: as §1

[6] = compound: C1=CC2=NC=CN=C2C=C1/C=C/3\C(=O)NC(=O)S3
In short: as §1

[7] = compound: C1=CC=C(C=C1)C2=NC(=C(N2)C3=CC=NC=C3)C4=CC(=C(C=C4)Cl)O
In short: as §1

[8] = compound: C1=CC=C2C(=C1)C3=NNC4=CC=CC(=C43)C2=O
In short: as §1

[9] = compound: C1CCN(C1)C(=O)NC2=CC=CC(=C2)NC3=NC=C(C(=N3)NCCC4=CN=CN4)Br
In short: as §1

[10] = compound: C1CN(CCC1(CC2=CC=C(C=C2)Cl)N)C3=NC=NC4=C3C=CN4
In short: as §1

[11] = compound: C1COCCN1CCN2C3=CC=CC=C3N=C2NC(=O)C4=CC(=CC=C4)[N+](=O)[O-] [IRAK-1-4 Inhibitor I]
In short: as §1

[12] = compound: C=CC(=O)N1CCC[C@@H](n2nc(-c3ccc(Oc4ccccc4)cc3)c3c(N)ncnc32)C1 [ibrutinib]
In short: as §1

[13] = compound: CC(=O)c1cnc2ccc(-c3cc(Cl)c(O)c(Cl)c3)nc2c1N[C@H]1CC[C@H](CN(C)C)CC1
In short: as §1

[14] = compound: CC(C)(C)Cn1c(N)nc2ccc(-c3[nH]c(C(C)(C)C)nc3-c3ccc(F)cc3)nc21 [ralimetinib]
In short: as §1

[15] = compound: CC(C)(O)CC(=O)NCCn1ccc2ncnc(Nc3ccc(Oc4cccc(C(F)(F)F)c4)c(Cl)c3)c21
In short: as §1

[16] = compound: CC(C)C1=C2N=C(C=C(N2N=C1)NCC3=CC=CC=C3)NCCCCCCN
In short: as §1

[17] = compound: CC(C)C[C@@H](C=O)NC(=O)[C@H](CC(C)C)NC(=O)[C@H](CC(C)C)NC(=O)OCc1ccccc1
In short: as §1

[18] = compound: CC(C)N(C[C@H]1O[C@@H](n2cnc3c(N)ncnc32)[C@H](O)[C@@H]1O)[C@H]1C[C@@H](CCc2nc3cc(C(C)(C)C)ccc3[nH]2)C1 [pinometostat]
In short: as §1

[19] = compound: CC1=C(C(CC(=O)N1)C2=CC=C(C=C2)C(F)(F)F)C(=O)NC3=C(C=C4C(=C3)C=NN4)F
In short: as §1

[20] = compound: CC1=C(C2=C(C=C1)C(=O)C3=CC=CC=C3N2CCCN)C
In short: as §1

Measured: log2 fold change

THEM6 (UniProt Q8WUY1)
inactive: [1] 0.013 | [2] 0.081 | [3] 0.016 | [4] 0.009 | [5] -0.015 | [6] 0.079 | [7] -0.005 | [8] 0.002 | [9] -0.187 | [10] 0.059 | [11] 0.065 | [12] 0.023 | [13] -0.012 | [14] -0.024 | [15] 0.058 | [16] -0.068 | [17] -0.054 | [18] -0.042 | [19] 0.057 | [20] 0.068

TES (UniProt Q9UGI8)
inactive: [1] 0.007 | [2] 0.008 | [3] 0.101 | [4] -0.022 | [5] -0.089 | [6] 0.031 | [7] 0.011 | [8] -0.002 | [9] 0.009 | [10] 0.072 | [11] 0.056 | [12] -0.029 | [13] 0.041 | [14] -0.012 | [15] -0.004 | [16] 0.056 | [17] -0.005 | [18] -0.034 | [19] -0.001 | [20] -0.049

THEM4 (UniProt Q5T1C6)
inactive: [1] -0.013 | [2] 0.019 | [3] 0.039 | [4] -0.03 | [5] -0.009 | [6] -0.001 | [7] -0.001 | [8] -0.023 | [9] 0.033 | [10] 0.026 | [11] 0.03 | [12] 0.036 | [13] 0.047 | [14] -0.044 | [15] 0.004 | [16] 0.009 | [17] 0.023 | [18] -0.076 | [19] 0.016 | [20] 0.004

TKT, A0A0B4J1R6
inactive: [1] 0.088 | [2] -0.16 | [3] -0.133 | [4] -0.071 | [5] 0.245 | [6] -0.015 | [7] -0.143 | [8] 0.035 | [9] 0.155 | [10] 0.014 | [11] 0.109 | [12] -0.201 | [13] -0.139 | [14] -0.292 | [15] 0.077 | [16] -0.043 | [17] 0.109 | [18] -0.177 | [19] 0.004 | [20] 0.044
